Test results as given in the supplement of paper PMC7661543.
The effect of the compound repeats well; differences between the knockouts mostly do not.

Tested on: MDA-MB-231
Test: relative cell number vs DMSO control (72 h) (% of DMSO); higher = less growth inhibition (more cells)
Protocol: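 QMAP-Seq: a pool of 5 breast cancer cell lines (ZR-75-1, SKBR3, HCC-38, MDA-MB-231, BT-20), each carrying 12 doxycycline-inducible Cas9 sgRNA perturbations (11 knockouts plus non-targeting sgNT), was treated with compounds for 72 h at four 10-fold doses (10 nM-10 uM or 1 nM-1 uM range). Barcodes were amplified and sequenced, and cell number was interpolated from 293T spike-in standard curves. The result is expressed as % of the median of DMSO wells. Two biological replicates.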

N[C@@H](CC(=O)N1CCn2c(nnc2C(F)(F)F)C1)Cc1cc(F)c(F)cc1F [Sitagliptin]
Conditions	relative cell number
sgRNA knockout: sgATF3, 10 nM	137.34
sgRNA knockout: sgATF3, 100 nM	119
sgRNA knockout: sgATF3, 1000 nM	97.2
sgRNA knockout: sgATF3, 10000 nM	109
sgRNA knockout: sgATF4, 10 nM	113
sgRNA knockout: sgATF4, 100 nM	102
sgRNA knockout: sgATF4, 1000 nM	85.8
sgRNA knockout: sgATF4, 10000 nM	152
sgRNA knockout: sgATF6, 10 nM	98.5
sgRNA knockout: sgATF6, 100 nM	112
sgRNA knockout: sgATF6, 1000 nM	97.8
sgRNA knockout: sgATF6, 10000 nM	127
sgRNA knockout: sgATG7, 10 nM	107
sgRNA knockout: sgATG7, 100 nM	96
sgRNA knockout: sgATG7, 1000 nM	94.5
sgRNA knockout: sgATG7, 10000 nM	100
sgRNA knockout: sgERN1, 10 nM	95.4
sgRNA knockout: sgERN1, 100 nM	137
sgRNA knockout: sgERN1, 1000 nM	114
sgRNA knockout: sgERN1, 10000 nM	108
sgRNA knockout: sgHSF1, 10 nM	104
sgRNA knockout: sgHSF1, 100 nM	97.9
sgRNA knockout: sgHSF1, 1000 nM	102
sgRNA knockout: sgHSF1, 10000 nM	91.1
sgRNA knockout: sgHSF2, 10 nM	110
sgRNA knockout: sgHSF2, 100 nM	101
sgRNA knockout: sgHSF2, 1000 nM	106
sgRNA knockout: sgHSF2, 10000 nM	93.2
sgRNA knockout: sgKEAP1, 10 nM	118
sgRNA knockout: sgKEAP1, 100 nM	130
sgRNA knockout: sgKEAP1, 1000 nM	97.6
sgRNA knockout: sgKEAP1, 10000 nM	93.522
sgRNA knockout: sgNFE2L2, 10 nM	102
sgRNA knockout: sgNFE2L2, 100 nM	94.6
sgRNA knockout: sgNFE2L2, 1000 nM	109
sgRNA knockout: sgNFE2L2, 10000 nM	105
sgRNA knockout: sgSLC35F2, 10 nM	110
sgRNA knockout: sgSLC35F2, 100 nM	106
sgRNA knockout: sgSLC35F2, 1000 nM	129
sgRNA knockout: sgSLC35F2, 10000 nM	90.7
sgRNA knockout: sgXBP1, 10 nM	108
sgRNA knockout: sgXBP1, 100 nM	134
sgRNA knockout: sgXBP1, 1000 nM	123
sgRNA knockout: sgXBP1, 10000 nM	94.1

CC(C)CC(=O)Nc1n[nH]c2c1CN(C(=O)C1CCN(C)CC1)C2(C)C
Conditions	relative cell number
sgRNA knockout: sgATF3, 10 nM	109
sgRNA knockout: sgATF3, 100 nM	69.8
sgRNA knockout: sgATF3, 1000 nM	38.1
sgRNA knockout: sgATF3, 10000 nM	12.1
sgRNA knockout: sgATF4, 10 nM	137
sgRNA knockout: sgATF4, 100 nM	58.8
sgRNA knockout: sgATF4, 1000 nM	33.1
sgRNA knockout: sgATF4, 10000 nM	15.3
sgRNA knockout: sgATF6, 10 nM	101.2
sgRNA knockout: sgATF6, 100 nM	56.4
sgRNA knockout: sgATF6, 1000 nM	36.1
sgRNA knockout: sgATF6, 10000 nM	10.3
sgRNA knockout: sgATG7, 10 nM	133
sgRNA knockout: sgATG7, 100 nM	63.1
sgRNA knockout: sgATG7, 1000 nM	22.5
sgRNA knockout: sgATG7, 10000 nM	11
sgRNA knockout: sgERN1, 10 nM	84.2
sgRNA knockout: sgERN1, 100 nM	70.9
sgRNA knockout: sgERN1, 1000 nM	26.4
sgRNA knockout: sgERN1, 10000 nM	12.66
sgRNA knockout: sgHSF1, 10 nM	93.4
sgRNA knockout: sgHSF1, 100 nM	63.2
sgRNA knockout: sgHSF1, 1000 nM	26.7
sgRNA knockout: sgHSF1, 10000 nM	11.1
sgRNA knockout: sgHSF2, 10 nM	117
sgRNA knockout: sgHSF2, 100 nM	55
sgRNA knockout: sgHSF2, 1000 nM	32.7
sgRNA knockout: sgHSF2, 10000 nM	12.2
sgRNA knockout: sgKEAP1, 10 nM	122
sgRNA knockout: sgKEAP1, 100 nM	67.7
sgRNA knockout: sgKEAP1, 1000 nM	32.3
sgRNA knockout: sgKEAP1, 10000 nM	11.4
sgRNA knockout: sgNFE2L2, 10 nM	109
sgRNA knockout: sgNFE2L2, 100 nM	73.6
sgRNA knockout: sgNFE2L2, 1000 nM	32
sgRNA knockout: sgNFE2L2, 10000 nM	13.9
sgRNA knockout: sgSLC35F2, 10 nM	100
sgRNA knockout: sgSLC35F2, 100 nM	52.1
sgRNA knockout: sgSLC35F2, 1000 nM	31.3
sgRNA knockout: sgSLC35F2, 10000 nM	15.2
sgRNA knockout: sgXBP1, 10 nM	125
sgRNA knockout: sgXBP1, 100 nM	63.5
sgRNA knockout: sgXBP1, 1000 nM	38.3
sgRNA knockout: sgXBP1, 10000 nM	14.9

Fc1ccc(CNc2ncnc3ccc(F)cc23)cc1 [Spautin1]
Conditions	relative cell number
sgRNA knockout: sgATF3, 10 nM	85.7
sgRNA knockout: sgATF3, 100 nM	101
sgRNA knockout: sgATF3, 1000 nM	108
sgRNA knockout: sgATF3, 10000 nM	92.6
sgRNA knockout: sgATF4, 10 nM	98
sgRNA knockout: sgATF4, 100 nM	80.2
sgRNA knockout: sgATF4, 1000 nM	91.6
sgRNA knockout: sgATF4, 10000 nM	108
sgRNA knockout: sgATF6, 10 nM	128
sgRNA knockout: sgATF6, 100 nM	98.8
sgRNA knockout: sgATF6, 1000 nM	89.7
sgRNA knockout: sgATF6, 10000 nM	102
sgRNA knockout: sgATG7, 10 nM	106
sgRNA knockout: sgATG7, 100 nM	111
sgRNA knockout: sgATG7, 1000 nM	92.5
sgRNA knockout: sgATG7, 10000 nM	87.7
sgRNA knockout: sgERN1, 10 nM	99.5
sgRNA knockout: sgERN1, 100 nM	84.6
sgRNA knockout: sgERN1, 1000 nM	97.9
sgRNA knockout: sgERN1, 10000 nM	104
sgRNA knockout: sgHSF1, 10 nM	108
sgRNA knockout: sgHSF1, 100 nM	92.9
sgRNA knockout: sgHSF1, 1000 nM	106
sgRNA knockout: sgHSF1, 10000 nM	102
sgRNA knockout: sgHSF2, 10 nM	111
sgRNA knockout: sgHSF2, 100 nM	127
sgRNA knockout: sgHSF2, 1000 nM	88.7
sgRNA knockout: sgHSF2, 10000 nM	98.8
sgRNA knockout: sgKEAP1, 10 nM	105
sgRNA knockout: sgKEAP1, 100 nM	88.3
sgRNA knockout: sgKEAP1, 1000 nM	93.3
sgRNA knockout: sgKEAP1, 10000 nM	75.3
sgRNA knockout: sgNFE2L2, 10 nM	99.5
sgRNA knockout: sgNFE2L2, 100 nM	82.2
sgRNA knockout: sgNFE2L2, 1000 nM	87.5
sgRNA knockout: sgNFE2L2, 10000 nM	94.8
sgRNA knockout: sgSLC35F2, 10 nM	100
sgRNA knockout: sgSLC35F2, 100 nM	103
sgRNA knockout: sgSLC35F2, 1000 nM	77.9
sgRNA knockout: sgSLC35F2, 10000 nM	87.9
sgRNA knockout: sgXBP1, 10 nM	98.4
sgRNA knockout: sgXBP1, 100 nM	85.5
sgRNA knockout: sgXBP1, 1000 nM	82.7
sgRNA knockout: sgXBP1, 10000 nM	89.8
